Experimental data from patent publication US9926581B2, “Fagopyritol synthase genes and uses thereof” (Cornell Research Foundation, Inc., priority 2002, dated 2018).

Experiments:
immature soybean embryos = assay: Embryo feeding experiments: cyclitols fed to immature soybean embryos, precocious maturation by slow drying, soluble carbohydrates in axis and cotyledons; type: in vivo, Glycine max (L.) Merrill
buckwheat explants = assay: Buckwheat explant feeding with 100 mM cyclitol in 1% sucrose for 5 days, soluble carbohydrates in embryos and leaf disks; type: in vivo, Fagopyrum esculentum; details: replicate values
soybean explants = assay: Soybean explant feeding 3 days with 50 mM cyclitol in 1% sucrose, slow drying time course, soluble carbohydrates in axis, cotyledon, seed coat and leaf
[1] = 3 days transport of sucrose (1%) and D-chiro-inositol (50 mM), after 2 days slow drying, Rep 1
[2] = 3 days transport of sucrose (1%) and D-chiro-inositol (50 mM), after 2 days slow drying, Rep 2
[3] = 3 days transport of sucrose (1%) and D-chiro-inositol (50 mM), after 4 days slow drying, Rep 1
[4] = 3 days transport of sucrose (1%) and D-chiro-inositol (50 mM), after 4 days slow drying, Rep 2
[5] = 3 days transport of sucrose (1%) and D-chiro-inositol (50 mM), after 14 days slow drying, Rep 1
[6] = 3 days transport of sucrose (1%) and D-chiro-inositol (50 mM), after 14 days slow drying, Rep 2
[7] = 3 days transport of sucrose (1%) and D-chiro-inositol (50 mM), before slow drying, Rep 1
[8] = 3 days transport of sucrose (1%) and D-chiro-inositol (50 mM), before slow drying, Rep 2
[9] = 3 days transport of sucrose (1%) and D-pinitol (50 mM), after 2 days slow drying, Rep 1
[10] = 3 days transport of sucrose (1%) and D-pinitol (50 mM), after 2 days slow drying, Rep 2
[11] = 3 days transport of sucrose (1%) and D-pinitol (50 mM), after 4 days slow drying, Rep 1
[12] = 3 days transport of sucrose (1%) and D-pinitol (50 mM), after 4 days slow drying, Rep 2
[13] = 3 days transport of sucrose (1%) and D-pinitol (50 mM), after 14 days slow drying, Rep 1
[14] = 3 days transport of sucrose (1%) and D-pinitol (50 mM), after 14 days slow drying, Rep 2
[15] = 3 days transport of sucrose (1%) and D-pinitol (50 mM), before slow drying, Rep 1
[16] = 3 days transport of sucrose (1%) and D-pinitol (50 mM), before slow drying, Rep 2
[17] = 3 days transport of sucrose (1%) and myo-inositol (50 mM), after 2 days slow drying, Rep 1
[18] = 3 days transport of sucrose (1%) and myo-inositol (50 mM), after 2 days slow drying, Rep 2
[19] = 3 days transport of sucrose (1%) and myo-inositol (50 mM), after 4 days slow drying, Rep 1
[20] = 3 days transport of sucrose (1%) and myo-inositol (50 mM), after 4 days slow drying, Rep 2
[21] = 3 days transport of sucrose (1%) and myo-inositol (50 mM), after 14 days slow drying, Rep 1
[22] = 3 days transport of sucrose (1%) and myo-inositol (50 mM), after 14 days slow drying, Rep 2
[23] = 3 days transport of sucrose (1%) and myo-inositol (50 mM), before slow drying, Rep 1
[24] = 3 days transport of sucrose (1%) and myo-inositol (50 mM), before slow drying, Rep 2
[25] = 3 days transport of sucrose (1%) without cyclitols, after 2 days slow drying, Rep 1
[26] = 3 days transport of sucrose (1%) without cyclitols, after 2 days slow drying, Rep 2
[27] = 3 days transport of sucrose (1%) without cyclitols, after 4 days slow drying, Rep 1
[28] = 3 days transport of sucrose (1%) without cyclitols, after 4 days slow drying, Rep 2
[29] = 3 days transport of sucrose (1%) without cyclitols, after 14 days slow drying, Rep 1
[30] = 3 days transport of sucrose (1%) without cyclitols, after 14 days slow drying, Rep 2
[31] = 3 days transport of sucrose (1%) without cyclitols, before slow drying, Rep 1
[32] = 3 days transport of sucrose (1%) without cyclitols, before slow drying, Rep 2

What does the source list for `CO[C@H]1[C@H](O)[C@@H](O[C@H]2O[C@H](CO)[C@H](O)[C@H](O)[C@H]2O)[C@@H](O)[C@H](O)[C@@H]1O` [Galactopinitol A, galactopinitol A]?
change in concentration after feeding myo-inositol (immature soybean embryos; axis and cotyledon tissues, myo-inositol up to 50 mM, after precocious maturation): little change; increase in concentration after feeding D-chiro-inositol (immature soybean embryos; axis and cotyledons, concentration series, 14 days precocious maturation): did not increase; Soluble carbohydrates in embryos of seeds from buckwheat explants (buckwheat explants; fed 100 mM D-chiro-inositol in 1% sucrose solution 5 days, 2 days slow drying): 0 μg/embryo; Soluble carbohydrates in embryos of seeds from buckwheat explants (buckwheat explants; fed 100 mM D-chiro-inositol in 1% sucrose solution 5 days, 4 days slow drying): 0 μg/embryo; Soluble carbohydrates in embryos of seeds from buckwheat explants (buckwheat explants; fed 100 mM D-chiro-inositol in 1% sucrose solution 5 days, 7 days slow drying): 0 μg/embryo; Soluble carbohydrates in embryos of seeds from buckwheat explants (buckwheat explants; fed 100 mM D-chiro-inositol in 1% sucrose solution, after 1 day feeding): 0 μg/embryo; Soluble carbohydrates in embryos of seeds from buckwheat explants (buckwheat explants; fed 100 mM D-chiro-inositol in 1% sucrose solution, after 5 days feeding): 0 μg/embryo; Soluble carbohydrates in embryos of seeds from buckwheat explants (buckwheat explants; fed 100 mM D-pinitol in 1% sucrose solution 5 days, 2 days slow drying): 0 μg/embryo and 12.91 μg/embryo and 6.68 μg/embryo; Soluble carbohydrates in embryos of seeds from buckwheat explants (buckwheat explants; fed 100 mM D-pinitol in 1% sucrose solution 5 days, 4 days slow drying): 3.39 μg/embryo and 0 μg/embryo (2×); Soluble carbohydrates in embryos of seeds from buckwheat explants (buckwheat explants; fed 100 mM D-pinitol in 1% sucrose solution 5 days, 7 days slow drying): 6.41 μg/embryo and 9.09 μg/embryo and 0 μg/embryo; Soluble carbohydrates in embryos of seeds from buckwheat explants (buckwheat explants; fed 100 mM D-pinitol in 1% sucrose solution, after 1 day feeding): 0 μg/embryo; Soluble carbohydrates in embryos of seeds from buckwheat explants (buckwheat explants; fed 100 mM D-pinitol in 1% sucrose solution, after 5 days feeding): 0 μg/embryo and 6.18 μg/embryo and 5.84 μg/embryo; Soluble carbohydrates in embryos of seeds from buckwheat explants (buckwheat explants; fed 100 mM myo-inositol in 1% sucrose solution 5 days, 2 days slow drying): 0 μg/embryo; Soluble carbohydrates in embryos of seeds from buckwheat explants (buckwheat explants; fed 100 mM myo-inositol in 1% sucrose solution 5 days, 4 days slow drying): 0 μg/embryo; Soluble carbohydrates in embryos of seeds from buckwheat explants (buckwheat explants; fed 100 mM myo-inositol in 1% sucrose solution 5 days, 7 days slow drying): 0 μg/embryo; Soluble carbohydrates in embryos of seeds from buckwheat explants (buckwheat explants; fed 100 mM myo-inositol in 1% sucrose solution, after 1 day feeding): 0 μg/embryo; Soluble carbohydrates in embryos of seeds from buckwheat explants (buckwheat explants; fed 100 mM myo-inositol in 1% sucrose solution, after 5 days feeding): 0 μg/embryo; Soluble carbohydrates in embryos of seeds from buckwheat explants (buckwheat explants; fed 1% sucrose (without cyclitols) solution 5 days, 2 days slow drying): 0 μg/embryo (2×) and tr; Soluble carbohydrates in embryos of seeds from buckwheat explants (buckwheat explants; fed 1% sucrose (without cyclitols) solution 5 days, 4 days slow drying): 0 μg/embryo; Soluble carbohydrates in embryos of seeds from buckwheat explants (buckwheat explants; fed 1% sucrose (without cyclitols) solution 5 days, 7 days slow drying): 0 μg/embryo; Soluble carbohydrates in embryos of seeds from buckwheat explants (buckwheat explants; fed 1% sucrose (without cyclitols) solution, after 5 days feeding): 0 μg/embryo and tr; Accumulation of soluble carbohydrates in soybean axis (soybean explants; [1]): 6.35 μg/axis; Accumulation of soluble carbohydrates in soybean cotyledon (soybean explants; [1]): 12.41 μg/cotyledon; Accumulation of soluble carbohydrates in soybean seed coat (soybean explants; [1]): 0 μg/seed coat; Accumulation of soluble carbohydrates in soybean axis (soybean explants; [2]): 6.24 μg/axis; Accumulation of soluble carbohydrates in soybean cotyledon (soybean explants; [2]): 16.08 μg/cotyledon; Accumulation of soluble carbohydrates in soybean seed coat (soybean explants; [2]): 4.13 μg/seed coat; Accumulation of soluble carbohydrates in soybean axis (soybean explants; [3]): 13.54 μg/axis; Accumulation of soluble carbohydrates in soybean cotyledon (soybean explants; [3]): 47.20 μg/cotyledon; Accumulation of soluble carbohydrates in soybean seed coat (soybean explants; [3]): 4.72 μg/seed coat; Accumulation of soluble carbohydrates in soybean axis (soybean explants; [4]): 12.18 μg/axis; Accumulation of soluble carbohydrates in soybean cotyledon (soybean explants; [4]): 42.69 μg/cotyledon; Accumulation of soluble carbohydrates in soybean seed coat (soybean explants; [4]): 4.29 μg/seed coat; Accumulation of soluble carbohydrates in soybean axis (soybean explants; [5]): 15.50 μg/axis; Accumulation of soluble carbohydrates in soybean cotyledon (soybean explants; [5]): 48.41 μg/cotyledon; Accumulation of soluble carbohydrates in soybean seed coat (soybean explants; [5]): 0 μg/seed coat; Accumulation of soluble carbohydrates in soybean axis (soybean explants; [6]): 10.18 μg/axis; Accumulation of soluble carbohydrates in soybean cotyledon (soybean explants; [6]): 47.44 μg/cotyledon; Accumulation of soluble carbohydrates in soybean seed coat (soybean explants; [6]): 7.33 μg/seed coat; Accumulation of soluble carbohydrates in soybean axis (soybean explants; [7]): 0 μg/axis; Accumulation of soluble carbohydrates in soybean cotyledon (soybean explants; [7]): 15.98 μg/cotyledon; Accumulation of soluble carbohydrates in soybean axis (soybean explants; [8]): 0 μg/axis; Accumulation of soluble carbohydrates in soybean cotyledon (soybean explants; [8]): 0 μg/cotyledon; Accumulation of soluble carbohydrates in soybean axis (soybean explants; [9]): 7.62 μg/axis; Accumulation of soluble carbohydrates in soybean cotyledon (soybean explants; [9]): 12.29 μg/cotyledon; Accumulation of soluble carbohydrates in soybean seed coat (soybean explants; [9]): 0 μg/seed coat; Accumulation of soluble carbohydrates in soybean axis (soybean explants; [10]): 9.41 μg/axis; Accumulation of soluble carbohydrates in soybean cotyledon (soybean explants; [10]): 8.49 μg/cotyledon; Accumulation of soluble carbohydrates in soybean seed coat (soybean explants; [10]): 5.55 μg/seed coat; Accumulation of soluble carbohydrates in soybean axis (soybean explants; [11]): 25.04 μg/axis; Accumulation of soluble carbohydrates in soybean cotyledon (soybean explants; [11]): 94.29 μg/cotyledon; Accumulation of soluble carbohydrates in soybean seed coat (soybean explants; [11]): 4.81 μg/seed coat; Accumulation of soluble carbohydrates in soybean axis (soybean explants; [12]): 19.32 μg/axis; Accumulation of soluble carbohydrates in soybean cotyledon (soybean explants; [12]): 117.43 μg/cotyledon; Accumulation of soluble carbohydrates in soybean seed coat (soybean explants; [12]): 5.72 μg/seed coat; Accumulation of soluble carbohydrates in soybean axis (soybean explants; [13]): 24.72 μg/axis; Accumulation of soluble carbohydrates in soybean cotyledon (soybean explants; [13]): 86.03 μg/cotyledon; Accumulation of soluble carbohydrates in soybean seed coat (soybean explants; [13]): 10.65 μg/seed coat; Accumulation of soluble carbohydrates in soybean axis (soybean explants; [14]): 32.49 μg/axis; Accumulation of soluble carbohydrates in soybean cotyledon (soybean explants; [14]): 104.22 μg/cotyledon; Accumulation of soluble carbohydrates in soybean seed coat (soybean explants; [14]): 19.70 μg/seed coat; Accumulation of soluble carbohydrates in soybean axis (soybean explants; [15]): 0 μg/axis; Accumulation of soluble carbohydrates in soybean cotyledon (soybean explants; [15]): 9.09 μg/cotyledon; Accumulation of soluble carbohydrates in soybean axis (soybean explants; [16]): 0 μg/axis; Accumulation of soluble carbohydrates in soybean cotyledon (soybean explants; [16]): 9.60 μg/cotyledon; Accumulation of soluble carbohydrates in soybean axis (soybean explants; [17]): 5.86 μg/axis; Accumulation of soluble carbohydrates in soybean cotyledons (soybean explants; [17]): 12.84 μg/cotyledon; Accumulation of soluble carbohydrates in soybean seed coats (soybean explants; [17]): 0 μg/seed coat; Accumulation of soluble carbohydrates in soybean axis (soybean explants; [18]): 8.20 μg/axis; Accumulation of soluble carbohydrates in soybean cotyledons (soybean explants; [18]): 10.98 μg/cotyledon; Accumulation of soluble carbohydrates in soybean seed coats (soybean explants; [18]): 0 μg/seed coat; Accumulation of soluble carbohydrates in soybean axis (soybean explants; [19]): 9.93 μg/axis; Accumulation of soluble carbohydrates in soybean cotyledons (soybean explants; [19]): 28.27 μg/cotyledon; Accumulation of soluble carbohydrates in soybean axis (soybean explants; [20]): 11.97 μg/axis; Accumulation of soluble carbohydrates in soybean cotyledons (soybean explants; [20]): 54.91 μg/cotyledon; Accumulation of soluble carbohydrates in soybean seed coats (soybean explants; [20]): 4.87 μg/seed coat; Accumulation of soluble carbohydrates in soybean axis (soybean explants; [21]): 13.99 μg/axis; Accumulation of soluble carbohydrates in soybean cotyledons (soybean explants; [21]): 34.57 μg/cotyledon; Accumulation of soluble carbohydrates in soybean seed coats (soybean explants; [21]): 6.98 μg/seed coat; Accumulation of soluble carbohydrates in soybean axis (soybean explants; [22]): 10.23 μg/axis; Accumulation of soluble carbohydrates in soybean cotyledons (soybean explants; [22]): 28.69 μg/cotyledon; Accumulation of soluble carbohydrates in soybean seed coats (soybean explants; [22]): 7.08 μg/seed coat; Accumulation of soluble carbohydrates in soybean axis (soybean explants; [23]): 4.31 μg/axis; Accumulation of soluble carbohydrates in soybean cotyledons (soybean explants; [23]): 9.46 μg/cotyledon; Accumulation of soluble carbohydrates in soybean axis (soybean explants; [24]): 0 μg/axis; Accumulation of soluble carbohydrates in soybean cotyledons (soybean explants; [24]): 10.00 μg/cotyledon; Accumulation of soluble carbohydrates in soybean axis (soybean explants; [25]): 7.55 μg/axis; Accumulation of soluble carbohydrates in soybean cotyledon (soybean explants; [25]): 9.17 μg/cotyledon; Accumulation of soluble carbohydrates in soybean seed coats (soybean explants; [25]): 0 μg/seed coat; Accumulation of soluble carbohydrates in soybean axis (soybean explants; [26]): 9.97 μg/axis; Accumulation of soluble carbohydrates in soybean cotyledon (soybean explants; [26]): 9.30 μg/cotyledon; Accumulation of soluble carbohydrates in soybean seed coats (soybean explants; [26]): 4.95 μg/seed coat; Accumulation of soluble carbohydrates in soybean axis (soybean explants; [27]): 17.42 μg/axis; Accumulation of soluble carbohydrates in soybean cotyledon (soybean explants; [27]): 114.04 μg/cotyledon; Accumulation of soluble carbohydrates in soybean seed coats (soybean explants; [27]): 5.54 μg/seed coat; Accumulation of soluble carbohydrates in soybean axis (soybean explants; [28]): 16.07 μg/axis; Accumulation of soluble carbohydrates in soybean cotyledon (soybean explants; [28]): 84.24 μg/cotyledon; Accumulation of soluble carbohydrates in soybean seed coats (soybean explants; [28]): 8.05 μg/seed coat; Accumulation of soluble carbohydrates in soybean axis (soybean explants; [29]): 16.14 μg/axis; Accumulation of soluble carbohydrates in soybean cotyledon (soybean explants; [29]): 102.80 μg/cotyledon; Accumulation of soluble carbohydrates in soybean seed coats (soybean explants; [29]): 5.79 μg/seed coat; Accumulation of soluble carbohydrates in soybean axis (soybean explants; [30]): 12.28 μg/axis; Accumulation of soluble carbohydrates in soybean cotyledon (soybean explants; [30]): 68.60 μg/cotyledon; Accumulation of soluble carbohydrates in soybean seed coats (soybean explants; [30]): 6.14 μg/seed coat; Accumulation of soluble carbohydrates in soybean axis (soybean explants; [31]): 0 μg/axis; Accumulation of soluble carbohydrates in soybean cotyledon (soybean explants; [31]): 9.90 μg/cotyledon; Accumulation of soluble carbohydrates in soybean axis (soybean explants; [32]): 0 μg/axis; Accumulation of soluble carbohydrates in soybean cotyledon (soybean explants; [32]): 9.21 μg/cotyledon

Values joined by “and” are separate entries in the source; they are usually repeats but may differ in a detail not shown here. Equal values may be shown once.
